According to patent US20260193363A1:
No constants are given. Whether binding was seen depends on the method and setting.

How the values were obtained:
[1] = biological target: wild-type EGFR on F98EGFR cells (rat glioma F98 transfected with full-length EGFR) (UniProt P00533); experiment: flow cytometry, F98-EGFR cells
[2] = biological target: wild-type EGFR on F98EGFR cells (rat glioma F98 transfected with full-length EGFR) (UniProt P00533); experiment: flow cytometry on F98EGFR cells
[3] = biological target: wild-type EGFR on F98EGFR cells (rat glioma F98 transfected with full-length EGFR) (UniProt P00533); experiment: flow cytometry, hybridoma supernatant, F98EGFR cells, Median (PE-A)
[4] = biological target: EGFR overexpressed on cancer cell lines MDA-MB-468 and A431 (human) (UniProt P00533); experiment: flow cytometry on MDA-MB-468 cells; substantially similar result on A431 cells
[5] = biological target: EGFR overexpressed on cancer cell lines MDA-MB-468 and A431 (human) (UniProt P00533); experiment: flow cytometry, hybridoma supernatant, MDA-MB-468 cells, Geometric Mean (PE-A)

Binder | binding [1] | binding [2] | binding [3] | binding [4] | binding [5]
monoclonal antibody 1D9 (antibody, V domains shown) VH: QVQLKQSGRSLVQPSQSLSITCTVSGFSLTDYGVHWIRQSPGKGLEWLGVIWRSGRTDYNAVFMSRLSITKDNSKSQVFFKMNGLQTDDTAIYYCAKNGPFGNFAGYWGQGTPVAVSA VL: DIVMSQSPSSLAVSVGEKVTMRCRSSQSLLDSYHQKNYLAWYLQKPGQSPKLLIYWASTRESGVPDRFTGSGSGTDFTLTISSVKAEDLAVYYCQEYYRYPYTFGGGTKLEIK | no binding (tested: 2 µg/ml) | no binding (tested: 2 µg/ml) | no binding (tested: 1:10 dilution of supernatant) | no binding (tested: 2 µg/ml) | 
monoclonal antibody 4A4 (antibody, V domains shown) VH: QVQLKQSGRSLVQPSQSLSITCTVSGFSLTDYGVHWIRQSPGKGLEWLGVIWRSGRTDYNAVFMSRLSITKDNSKSQVFFKMNGLLIEDTAIYYCAKNGPFGNFAGYWGQGTPVAVSA VL: DIVMSQSPSSLAVSVGEKVTMRCRSSQSLLDSYHQKNYLAWYLQKPGQSPKLLIYWASTRESGVPDRFTGSGSGTDFTLTISSVKAEDLAAYYCQEYYRYPYTFGGGTKLEIK | no binding (tested: 2 µg/ml) | no binding (tested: 2 µg/ml) | no binding (tested: 1:10 dilution of supernatant) | no binding (tested: 2 µg/ml) | no binding (tested: 1:10 dilution of supernatant)
